# Source: US8367647B2, “Treatment of meconium aspiration syndrome with estrogens” (Pantarhei Bioscience B.V., priority 2007, dated 2013)
# For at least one compound, name, drawing or mass did not settle the structure.
# Test system: newborn piglets
# Experiment: Meconium aspiration model: newborn piglets given human meconium by deep intratracheal instillation, monitored 7 days
# Type: in vivo
# Settings: 3 ml/kg of 20% human meconium intratracheal, daily oral dosage of 30 μg/kg
# Method: Immediately after birth, twelve newborn piglets are given 3 ml/kg of a 20% solution of human meconium by deep intratracheal instillation. Next, the piglets are randomly assigned to two groups of each six animals. Within one hour after birth, one group is treated with a daily oral dosage of 0.7 mg/kg estetrol whilst the control group is treated with placebo. During the next 7 days the condition of the piglets belonging to both groups are monitored. […] Example 1 was repeated, except that this time one group was treated with a daily oral dosage of 30 μg/kg estradiol instead of estetrol.
compound,measurement,value
C[C@]12CC[C@@H]3c4ccc(O)cc4CC[C@H]3[C@@H]1CC[C@@H]2O [estradiol],incidence of severe complications of MAS versus control group,lower incidence
